Experimental data published in the supplement of paper PMC10849652.
The other results are listed elsewhere or left out.

Amino acid sequences for entries named in this document (tags omitted). A change or cut given only in a name is not applied to a line headed by its entry.
UniProt Q96DI7: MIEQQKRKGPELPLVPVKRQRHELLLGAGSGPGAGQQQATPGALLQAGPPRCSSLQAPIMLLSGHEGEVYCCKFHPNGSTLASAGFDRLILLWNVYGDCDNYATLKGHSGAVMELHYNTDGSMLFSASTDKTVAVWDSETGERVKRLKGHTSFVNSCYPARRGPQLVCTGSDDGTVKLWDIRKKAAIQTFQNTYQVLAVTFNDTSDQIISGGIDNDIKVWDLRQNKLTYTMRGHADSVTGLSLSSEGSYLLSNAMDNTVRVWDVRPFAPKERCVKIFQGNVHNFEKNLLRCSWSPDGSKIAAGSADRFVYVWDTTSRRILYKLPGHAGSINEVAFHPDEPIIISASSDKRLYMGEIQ
UniProt Q9NXE4: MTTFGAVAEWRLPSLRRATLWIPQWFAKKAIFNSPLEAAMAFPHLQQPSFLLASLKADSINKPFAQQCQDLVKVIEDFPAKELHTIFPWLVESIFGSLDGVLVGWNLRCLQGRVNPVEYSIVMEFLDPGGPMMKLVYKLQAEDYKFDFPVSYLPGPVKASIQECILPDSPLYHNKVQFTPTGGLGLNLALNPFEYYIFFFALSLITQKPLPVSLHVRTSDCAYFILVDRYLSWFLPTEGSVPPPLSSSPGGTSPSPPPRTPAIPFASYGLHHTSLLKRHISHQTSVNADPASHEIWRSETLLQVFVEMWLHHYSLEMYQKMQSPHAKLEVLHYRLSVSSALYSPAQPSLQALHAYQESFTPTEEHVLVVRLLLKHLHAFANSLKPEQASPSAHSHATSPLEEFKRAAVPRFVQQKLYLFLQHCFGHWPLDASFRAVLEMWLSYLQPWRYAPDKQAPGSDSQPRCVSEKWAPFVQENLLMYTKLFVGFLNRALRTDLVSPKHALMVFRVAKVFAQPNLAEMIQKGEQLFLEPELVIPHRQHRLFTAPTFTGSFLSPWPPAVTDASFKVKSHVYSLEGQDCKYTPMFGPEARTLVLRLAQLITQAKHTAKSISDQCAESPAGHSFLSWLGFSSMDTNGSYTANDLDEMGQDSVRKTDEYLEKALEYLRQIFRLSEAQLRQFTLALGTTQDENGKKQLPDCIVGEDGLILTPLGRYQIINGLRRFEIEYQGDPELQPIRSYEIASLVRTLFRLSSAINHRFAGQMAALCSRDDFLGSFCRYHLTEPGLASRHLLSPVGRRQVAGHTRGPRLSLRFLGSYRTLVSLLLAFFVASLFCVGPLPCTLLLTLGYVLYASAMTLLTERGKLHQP
UniProt Q96CW6: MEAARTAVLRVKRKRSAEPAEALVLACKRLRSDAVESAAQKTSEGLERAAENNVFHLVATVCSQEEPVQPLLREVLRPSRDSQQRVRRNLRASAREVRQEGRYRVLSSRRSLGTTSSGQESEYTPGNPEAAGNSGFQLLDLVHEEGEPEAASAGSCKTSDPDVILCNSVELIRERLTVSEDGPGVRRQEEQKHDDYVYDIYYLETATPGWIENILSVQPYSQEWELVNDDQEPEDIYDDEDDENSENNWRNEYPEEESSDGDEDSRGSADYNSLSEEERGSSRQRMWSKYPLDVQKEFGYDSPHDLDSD
UniProt P18583: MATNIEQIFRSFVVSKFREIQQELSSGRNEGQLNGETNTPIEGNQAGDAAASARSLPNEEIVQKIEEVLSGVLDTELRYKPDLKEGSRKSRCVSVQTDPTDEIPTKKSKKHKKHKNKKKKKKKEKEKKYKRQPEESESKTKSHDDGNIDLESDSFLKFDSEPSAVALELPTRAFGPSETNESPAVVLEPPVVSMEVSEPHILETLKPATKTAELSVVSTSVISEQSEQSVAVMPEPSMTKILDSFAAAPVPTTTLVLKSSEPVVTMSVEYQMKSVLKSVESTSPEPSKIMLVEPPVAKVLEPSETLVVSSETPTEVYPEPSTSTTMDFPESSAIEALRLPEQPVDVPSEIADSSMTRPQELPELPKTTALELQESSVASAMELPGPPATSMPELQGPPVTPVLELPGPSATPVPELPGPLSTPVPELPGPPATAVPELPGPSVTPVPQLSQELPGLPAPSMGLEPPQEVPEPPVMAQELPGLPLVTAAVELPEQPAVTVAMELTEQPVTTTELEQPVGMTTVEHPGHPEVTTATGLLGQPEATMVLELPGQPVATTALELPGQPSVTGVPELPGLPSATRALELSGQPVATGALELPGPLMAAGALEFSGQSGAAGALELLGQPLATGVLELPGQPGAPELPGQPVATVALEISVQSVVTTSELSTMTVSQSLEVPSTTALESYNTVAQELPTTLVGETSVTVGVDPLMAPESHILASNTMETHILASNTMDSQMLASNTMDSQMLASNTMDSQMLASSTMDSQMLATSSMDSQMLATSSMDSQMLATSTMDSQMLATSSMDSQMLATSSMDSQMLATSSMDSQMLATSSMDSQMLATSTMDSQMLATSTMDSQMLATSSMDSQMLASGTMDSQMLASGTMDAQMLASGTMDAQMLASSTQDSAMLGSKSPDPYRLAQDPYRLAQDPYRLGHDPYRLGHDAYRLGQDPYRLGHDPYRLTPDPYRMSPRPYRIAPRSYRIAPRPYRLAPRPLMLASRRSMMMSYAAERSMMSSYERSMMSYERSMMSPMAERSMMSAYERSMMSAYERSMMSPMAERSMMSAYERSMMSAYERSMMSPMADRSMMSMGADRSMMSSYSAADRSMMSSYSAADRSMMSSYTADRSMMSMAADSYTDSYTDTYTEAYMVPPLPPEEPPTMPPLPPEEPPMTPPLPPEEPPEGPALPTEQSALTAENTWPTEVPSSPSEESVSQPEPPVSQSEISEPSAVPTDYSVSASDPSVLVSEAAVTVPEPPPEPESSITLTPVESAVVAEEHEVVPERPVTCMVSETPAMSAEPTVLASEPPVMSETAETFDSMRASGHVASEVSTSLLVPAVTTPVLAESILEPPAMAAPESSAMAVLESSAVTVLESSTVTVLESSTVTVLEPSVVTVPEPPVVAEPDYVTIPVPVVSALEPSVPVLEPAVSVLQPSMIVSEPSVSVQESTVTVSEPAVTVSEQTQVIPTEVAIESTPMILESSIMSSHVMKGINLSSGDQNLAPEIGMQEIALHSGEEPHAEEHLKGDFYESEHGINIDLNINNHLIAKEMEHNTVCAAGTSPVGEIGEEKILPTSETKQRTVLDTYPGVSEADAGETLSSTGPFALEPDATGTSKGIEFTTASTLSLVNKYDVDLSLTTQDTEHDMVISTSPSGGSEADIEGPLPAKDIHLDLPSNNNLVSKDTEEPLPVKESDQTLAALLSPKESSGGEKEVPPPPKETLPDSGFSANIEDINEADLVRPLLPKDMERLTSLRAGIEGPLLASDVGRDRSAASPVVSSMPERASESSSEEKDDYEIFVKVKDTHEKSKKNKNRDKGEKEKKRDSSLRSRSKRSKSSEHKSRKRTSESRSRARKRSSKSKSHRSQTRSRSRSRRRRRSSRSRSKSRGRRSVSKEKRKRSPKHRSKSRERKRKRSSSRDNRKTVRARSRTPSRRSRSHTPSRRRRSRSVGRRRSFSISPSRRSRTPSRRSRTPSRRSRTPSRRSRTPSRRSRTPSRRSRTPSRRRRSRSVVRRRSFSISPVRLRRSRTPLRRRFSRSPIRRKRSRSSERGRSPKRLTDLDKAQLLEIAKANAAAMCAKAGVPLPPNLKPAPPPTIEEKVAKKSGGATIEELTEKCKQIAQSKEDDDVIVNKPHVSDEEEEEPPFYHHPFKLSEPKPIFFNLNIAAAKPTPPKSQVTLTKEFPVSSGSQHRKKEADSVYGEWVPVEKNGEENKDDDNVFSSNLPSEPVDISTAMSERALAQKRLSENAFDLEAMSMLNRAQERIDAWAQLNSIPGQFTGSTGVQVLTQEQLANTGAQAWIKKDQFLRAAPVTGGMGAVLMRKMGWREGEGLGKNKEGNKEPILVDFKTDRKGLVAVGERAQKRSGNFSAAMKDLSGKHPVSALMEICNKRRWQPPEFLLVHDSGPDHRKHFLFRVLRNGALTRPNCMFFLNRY
UniProt Q9UPR3: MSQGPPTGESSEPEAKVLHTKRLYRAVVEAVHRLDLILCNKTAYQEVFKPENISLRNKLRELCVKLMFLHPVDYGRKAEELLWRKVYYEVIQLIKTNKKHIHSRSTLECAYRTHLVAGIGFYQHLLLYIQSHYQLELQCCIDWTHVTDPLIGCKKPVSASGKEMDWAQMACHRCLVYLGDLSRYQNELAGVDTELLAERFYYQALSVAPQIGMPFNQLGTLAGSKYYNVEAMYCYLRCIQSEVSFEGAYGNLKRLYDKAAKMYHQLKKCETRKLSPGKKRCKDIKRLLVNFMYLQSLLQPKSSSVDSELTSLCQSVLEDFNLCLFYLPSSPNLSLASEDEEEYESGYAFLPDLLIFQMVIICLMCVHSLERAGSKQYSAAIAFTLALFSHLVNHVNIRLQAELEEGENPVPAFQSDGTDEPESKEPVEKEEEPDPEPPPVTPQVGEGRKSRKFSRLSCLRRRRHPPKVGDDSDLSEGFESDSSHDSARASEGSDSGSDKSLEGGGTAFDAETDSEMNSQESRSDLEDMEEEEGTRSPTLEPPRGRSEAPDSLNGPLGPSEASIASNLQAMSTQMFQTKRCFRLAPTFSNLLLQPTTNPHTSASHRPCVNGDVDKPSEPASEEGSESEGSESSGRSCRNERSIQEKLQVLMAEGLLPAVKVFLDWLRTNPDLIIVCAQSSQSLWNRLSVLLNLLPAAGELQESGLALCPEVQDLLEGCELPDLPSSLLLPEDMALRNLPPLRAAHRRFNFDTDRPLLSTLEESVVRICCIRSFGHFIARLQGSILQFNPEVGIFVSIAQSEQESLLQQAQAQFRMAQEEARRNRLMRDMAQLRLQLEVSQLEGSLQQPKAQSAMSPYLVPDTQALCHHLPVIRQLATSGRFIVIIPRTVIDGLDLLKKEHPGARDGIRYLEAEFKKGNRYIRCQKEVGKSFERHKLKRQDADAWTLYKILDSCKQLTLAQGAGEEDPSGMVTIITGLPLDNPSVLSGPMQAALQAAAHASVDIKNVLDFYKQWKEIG
UniProt Q9H0W8: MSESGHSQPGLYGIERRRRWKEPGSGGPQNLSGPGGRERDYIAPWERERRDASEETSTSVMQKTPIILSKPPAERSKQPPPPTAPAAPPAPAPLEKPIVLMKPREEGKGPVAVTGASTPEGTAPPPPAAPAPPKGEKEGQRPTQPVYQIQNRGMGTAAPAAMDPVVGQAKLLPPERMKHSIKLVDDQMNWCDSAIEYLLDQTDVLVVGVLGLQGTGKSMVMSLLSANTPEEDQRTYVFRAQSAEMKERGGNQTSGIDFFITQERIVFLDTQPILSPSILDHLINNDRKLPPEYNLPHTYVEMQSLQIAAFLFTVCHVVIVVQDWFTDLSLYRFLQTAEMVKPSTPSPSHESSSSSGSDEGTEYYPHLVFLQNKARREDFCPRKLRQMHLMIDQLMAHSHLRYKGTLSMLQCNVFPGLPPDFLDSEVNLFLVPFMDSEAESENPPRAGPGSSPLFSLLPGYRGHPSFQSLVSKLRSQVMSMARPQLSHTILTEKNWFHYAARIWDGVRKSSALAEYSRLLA
UniProt O75940: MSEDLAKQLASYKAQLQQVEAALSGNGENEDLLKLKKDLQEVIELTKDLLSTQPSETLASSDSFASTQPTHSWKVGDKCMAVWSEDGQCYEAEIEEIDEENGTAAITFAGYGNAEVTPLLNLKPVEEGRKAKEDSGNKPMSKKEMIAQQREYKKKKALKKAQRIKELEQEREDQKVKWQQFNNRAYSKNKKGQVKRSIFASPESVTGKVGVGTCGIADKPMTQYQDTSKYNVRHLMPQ
UniProt Q9NRS6: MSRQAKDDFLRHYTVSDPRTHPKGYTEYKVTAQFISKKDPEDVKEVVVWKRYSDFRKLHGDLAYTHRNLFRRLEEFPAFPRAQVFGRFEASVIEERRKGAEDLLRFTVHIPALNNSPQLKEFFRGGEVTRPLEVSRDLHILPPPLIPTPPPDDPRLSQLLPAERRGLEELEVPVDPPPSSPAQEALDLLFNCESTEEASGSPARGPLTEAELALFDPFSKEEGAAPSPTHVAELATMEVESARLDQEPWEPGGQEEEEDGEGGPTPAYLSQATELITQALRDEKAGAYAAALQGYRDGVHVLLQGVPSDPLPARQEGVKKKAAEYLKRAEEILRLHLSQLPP
UniProt Q9Y5X2: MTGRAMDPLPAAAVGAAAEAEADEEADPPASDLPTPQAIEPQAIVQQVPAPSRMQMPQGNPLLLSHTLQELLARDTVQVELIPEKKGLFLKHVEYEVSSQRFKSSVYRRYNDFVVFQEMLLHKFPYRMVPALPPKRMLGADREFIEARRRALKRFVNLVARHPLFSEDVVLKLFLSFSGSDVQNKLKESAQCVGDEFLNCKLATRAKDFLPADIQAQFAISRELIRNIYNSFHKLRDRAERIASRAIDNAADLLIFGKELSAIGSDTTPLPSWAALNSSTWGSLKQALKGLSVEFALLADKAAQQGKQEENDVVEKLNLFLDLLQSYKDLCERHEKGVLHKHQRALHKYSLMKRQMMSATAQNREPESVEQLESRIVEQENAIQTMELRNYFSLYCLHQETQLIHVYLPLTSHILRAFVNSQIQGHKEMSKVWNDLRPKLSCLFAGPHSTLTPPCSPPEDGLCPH

Experiments:
Assay in all cases: log2 fold change, soluble protein after heating vs DMSO (PISA); higher = thermal stabilisation; K562 cells, 10 uM, 30 min; active = over 0.2 and 3.5 SD of the protein, either way, in both replicates (recomputed)
[1] = compound: NC(=O)Nc1cc(-c2cccc(F)c2)sc1C(=O)N[C@H]1CCCNC1
Outline: (§1)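 Aliquots of K562 cells (2×10^6 cells/mL) treated with 10 μM compound for 30 min were heated for 3 min over 48°C-58°C. After pooling and extraction in PBS with 0.5% NP-40 at 4°C, soluble protein from a 21,000xg, 90 min spin was quantified by TMTpro 16plex LC-MS/MS with channel sums equalised. Thermal stability is expressed against control samples, from duplicates, as a log2 fold change.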

[2] = compound: NC(=O)c1cnc(N[C@@H]2CCCC[C@@H]2N)nc1Nc1cccc(-n2nccn2)c1
Outline: as §1

[3] = compound: NC1(c2ccc(-c3nc4ccn5c(=O)[nH]nc5c4cc3-c3ccccc3)cc2)CCC1
Outline: as §1

[4] = compound: NCC(=O)Nc1ccc(-n2nc(C(F)(F)F)cc2-c2ccc3c(ccc4ccccc43)c2)cc1
Outline: as §1

entinostat = compound: Nc1ccccc1NC(=O)c1ccc(CNC(=O)OCc2cccnc2)cc1 [entinostat]
Outline: as §1

vorinostat = compound: O=C(CCCCCCC(=O)Nc1ccccc1)NO [vorinostat]
Outline: as §1

citarinostat = compound: O=C(CCCCCCNC(=O)c1cnc(N(c2ccccc2)c2ccccc2Cl)nc1)NO [citarinostat]
Outline: as §1

silmitasertib = compound: O=C(O)c1ccc2c(c1)nc(Nc1cccc(Cl)c1)c1ccncc12 [silmitasertib]
Outline: as §1

[5] = compound: O=C1NC(=O)C(c2cnc3ccccn23)=C1c1cn2c3c(cc(F)cc13)CN(C(=O)N1CCCCC1)CC2
Outline: as §1

[6] = compound: c1cc(OCCN2CCCCC2)cc(-c2n[nH]c3ccc(-c4nnc[nH]4)cc23)c1
Outline: as §1

entospletinib = compound: c1cn2cc(-c3ccc4cn[nH]c4c3)nc(Nc3ccc(N4CCOCC4)cc3)c2n1 [entospletinib]
Outline: as §1

Target	log2 fold change [1]	log2 fold change [2]	log2 fold change [3]	log2 fold change [4]	log2 fold change (entinostat)	log2 fold change (vorinostat)	log2 fold change (citarinostat)	log2 fold change (silmitasertib)	log2 fold change [5]	log2 fold change [6]	log2 fold change (entospletinib)
SNX12 isoform 1 (UniProt Q9UMY4)	inactive: -0.022	active: -0.225	active: -0.22	inactive: 0.019	inactive: 0.046	inactive: 0.035	inactive: 0.102	inactive: 0.06	inactive: -0.081	inactive: -0.066	
SMAP (UniProt O00193)	inactive: 0.007	inactive: -0.021	inactive: 0.12	inactive: 0.013	inactive: 0.016	inactive: -0.047	inactive: -0.029	inactive: -0.033	inactive: 0.006	inactive: 0.02	
SNRNP27 (UniProt Q8WVK2)	inactive: 0.022	inactive: -0.015	inactive: -0.034	inactive: -0.043	inactive: -0.024	inactive: -0.008	inactive: -0.003	inactive: 0.06	inactive: 0.038	inactive: -0.025	
SNRNP40 (UniProt Q96DI7)	inactive: 0.017	inactive: -0.017	inactive: 0.065	inactive: -0.011	inactive: -0.067	inactive: -0.018	inactive: -0.008	inactive: 0.058	inactive: 0.04	inactive: -0.121	
SMPD4 isoform 4 (UniProt Q9NXE4)	inactive: -0.008	inactive: -0.075	inactive: -0.141	inactive: -0.059	inactive: 0.033	inactive: 0.084	inactive: -0.039	inactive: 0.085	inactive: 0.012	inactive: 0.268	
SNX6 (UniProt Q9UNH7)	inactive: -0.027	active: -0.376	active: -0.403	inactive: 0.007	inactive: 0.075	inactive: 0.15	inactive: 0.064	inactive: -0.142	inactive: -0.003	inactive: -0.087	
SORT1 (UniProt Q99523)	inactive: -0.005	inactive: -0.032	active: -0.687	inactive: 0.038	inactive: -0.017	inactive: -0.002	inactive: 0.073	inactive: 0.006	inactive: 0.004	inactive: -0.139	
SLC7A6OS (UniProt Q96CW6)	inactive: -0.023	inactive: -0.085	inactive: -0.079	inactive: 0.042	inactive: -0.043	inactive: 0.056	inactive: 0.098	inactive: 0.06	inactive: -0.036	inactive: -0.037	
SLC9A6 isoform 2 (UniProt Q92581)	inactive: -0.021	inactive: 0.016	inactive: -0.091	inactive: -0.02	inactive: -0.017	inactive: -0.078	inactive: 0.025	inactive: 0.027	inactive: -0.021	inactive: -0.073	
SP1 (UniProt P08047)	inactive: -0.017	inactive: 0.011	inactive: 0.1	inactive: -0.001	inactive: -0.005	inactive: 0.052	inactive: -0.057	inactive: -0.007	inactive: 0.088	inactive: -0.088	
SMYD3 (UniProt Q9H7B4)	inactive: -0.116	inactive: -0.158	inactive: -0.082	inactive: 0.024	inactive: 0.164	inactive: 0.104		inactive: 0.013	inactive: 0.085		
SMIM1 (UniProt B2RUZ4)	inactive: 0.271	inactive: -0.047	inactive: -0.162		inactive: 0.297	inactive: 0.01	inactive: 0.122	inactive: 0.049		inactive: 0.121	inactive: -0.058
SON isoform 9 (UniProt P18583)	inactive: 0.033	inactive: -0.047		inactive: 0.032	inactive: -0.097	inactive: 0.065	inactive: -0.095		inactive: 0.128	inactive: 0.158	inactive: 0.109
SMG5 (UniProt Q9UPR3)	inactive: 0.065	inactive: -0.254	inactive: 0.146	inactive: -0.038	inactive: 0.075			inactive: -0.001	inactive: 0.06		
SMPD2 (UniProt O60906)	inactive: -0.06	inactive: -0.01	inactive: -0.052	inactive: -0.014	inactive: 0.094	inactive: 0.062	inactive: -0.013	inactive: -0.017	inactive: -0.093	inactive: -0.121	inactive: -0.012
SPAG7 (UniProt O75391)	inactive: 0.034	inactive: 0.019	inactive: -0.023	inactive: 0.009	inactive: -0.001	inactive: -0.016	inactive: 0.011	inactive: 0.01	inactive: -0.049	inactive: -0.031	inactive: -0.007

Two successive records already listed, quoted:
Target	log2 fold change [1]	log2 fold change [2]	log2 fold change [3]	log2 fold change [4]	log2 fold change (entinostat)	log2 fold change (vorinostat)	log2 fold change (citarinostat)	log2 fold change (silmitasertib)	log2 fold change [5]	log2 fold change [6]	log2 fold change (entospletinib)
SMIM1 (UniProt B2RUZ4)	inactive: 0.271	inactive: -0.047	inactive: -0.162		inactive: 0.297	inactive: 0.01	inactive: 0.122	inactive: 0.049		inactive: 0.121	inactive: -0.058
SON isoform 9 (UniProt P18583)	inactive: 0.033	inactive: -0.047		inactive: 0.032	inactive: -0.097	inactive: 0.065	inactive: -0.095		inactive: 0.128	inactive: 0.158	inactive: 0.109

Additional results follow.

Target	log2 fold change [1]	log2 fold change [2]	log2 fold change [3]	log2 fold change [4]	log2 fold change (entinostat)	log2 fold change (vorinostat)	log2 fold change (citarinostat)	log2 fold change (silmitasertib)	log2 fold change [5]	log2 fold change [6]	log2 fold change (entospletinib)
SOS1 (UniProt Q07889)	inactive: 0.016	inactive: 0.069	inactive: -0.021		inactive: -0.008		inactive: -0.052	inactive: 0.09	inactive: -0.017	inactive: -0.033	inactive: -0.008
SNX17 (UniProt Q15036)	inactive: -0.12	inactive: -0.155		inactive: 0.003	inactive: -0.012	inactive: -0.018	inactive: -0.085		inactive: 0.009	inactive: 0.042	inactive: -0.061
SMG9 (UniProt Q9H0W8)	inactive: -0.018	inactive: -0.001	inactive: -0.073	inactive: 0.011	inactive: -0.052	inactive: 0.006		inactive: -0.239	inactive: -0.029		
SOX5 (UniProt P35711)	inactive: 0.035	inactive: -0.064	inactive: -0.015	inactive: 0.03	inactive: -0.129			inactive: 0.018			
SMAD4 (UniProt Q13485)	inactive: 0.004	inactive: -0.03	inactive: -0.003	inactive: -0.003	inactive: -0.013	inactive: -0.01	inactive: 0.057	inactive: -0.019	inactive: -0.092	inactive: -0.019	inactive: -0.044
SORBS1 isoform 12 (UniProt Q9BX66)	inactive: 0.045	inactive: -0.059	inactive: -0.014	inactive: -0.051	inactive: -0.039	inactive: -0.017	inactive: 0.065	inactive: -0.024	inactive: -0.12	inactive: 0.07	inactive: -0.027
SLFN14 (UniProt P0C7P3)	inactive: 0.011	inactive: 0.108	inactive: 0.377	inactive: 0.277	inactive: 0.033	inactive: -0.081		inactive: -0.047	inactive: -0.002		
SNRPB isoform 3 (UniProt P14678)	inactive: 0.042	inactive: 0.09	inactive: 0.078	inactive: 0.099	inactive: -0.073	inactive: -0.061	inactive: -0.021	inactive: 0.073	inactive: 0.153	inactive: -0.036	inactive: 0.017
SNTA1 (UniProt Q13424)	inactive: 0.026	inactive: -0.059	inactive: -0.105	inactive: -0.047	inactive: -0.007	inactive: -0.093		inactive: 0.195	inactive: 0.084		
SMNDC1 (UniProt O75940)	inactive: -0.036	inactive: -0.021	inactive: 0.112	inactive: 0.059	inactive: -0.032	inactive: -0.042	inactive: -0.009	inactive: 0.018	inactive: 0.027	inactive: -0.073	inactive: -0.118
SNX15 (UniProt Q9NRS6)	inactive: 0.106	inactive: -0.135	inactive: -0.048	inactive: -0.133	inactive: 0.061	active: 0.436	inactive: 0.113	inactive: 0.276		inactive: -0.073	
SMAD5 (UniProt Q99717)	inactive: -0.008	inactive: 0.073	inactive: 0.066	inactive: -0.022	inactive: 0.124	inactive: 0.072		inactive: 0.137	inactive: -0.143		
SOD2 (UniProt P04179)	inactive: -0.05	inactive: 0.017	inactive: 0.069	inactive: 0.032	inactive: 0.021	inactive: 0.019	inactive: 0.082	inactive: -0.005	inactive: -0.04	inactive: -0.01	inactive: -0.01
SNX8 (UniProt Q9Y5X2)	inactive: 0	inactive: -0.052	inactive: -0.03	inactive: -0.001	inactive: -0.032	inactive: 0.019	inactive: 0.004	inactive: 0.045	inactive: -0.036	inactive: -0.022	inactive: 0.075
SPAG9 isoform 4 (UniProt O60271)	inactive: -0.101	inactive: -0.164	inactive: -0.09	inactive: -0.199	inactive: 0.034		inactive: -0.048	inactive: 0.014		inactive: -0.017	
